Reference: article PMC10411901, “FIRRM cooperates with FIGNL1 to promote RAD51 disassembly during DNA repair” (Science Advances, 2023)

How the values were obtained:
Experiment in all cases: EMSA
[1] = target: T1, FIGNL1 (insect, iFIGNL1) (Homo sapiens) (UniProt Q6PIW4); details: no fixation; Fixed EMSA: 40 mM tris-acetate pH 7.5, 20 mM NaCl, 2 mM CaCl2, 0.02% Tween, 1 mM DTT, 100 nM DNA, 0-25 nM protein, 37 C 15 min, then 0.2% glutaraldehyde; recombinant protein; residues 1-674; protein details: N-terminal GFP, TEV-removable; label: 5'-FAM; single-stranded DNA
T1 sequence (looked up): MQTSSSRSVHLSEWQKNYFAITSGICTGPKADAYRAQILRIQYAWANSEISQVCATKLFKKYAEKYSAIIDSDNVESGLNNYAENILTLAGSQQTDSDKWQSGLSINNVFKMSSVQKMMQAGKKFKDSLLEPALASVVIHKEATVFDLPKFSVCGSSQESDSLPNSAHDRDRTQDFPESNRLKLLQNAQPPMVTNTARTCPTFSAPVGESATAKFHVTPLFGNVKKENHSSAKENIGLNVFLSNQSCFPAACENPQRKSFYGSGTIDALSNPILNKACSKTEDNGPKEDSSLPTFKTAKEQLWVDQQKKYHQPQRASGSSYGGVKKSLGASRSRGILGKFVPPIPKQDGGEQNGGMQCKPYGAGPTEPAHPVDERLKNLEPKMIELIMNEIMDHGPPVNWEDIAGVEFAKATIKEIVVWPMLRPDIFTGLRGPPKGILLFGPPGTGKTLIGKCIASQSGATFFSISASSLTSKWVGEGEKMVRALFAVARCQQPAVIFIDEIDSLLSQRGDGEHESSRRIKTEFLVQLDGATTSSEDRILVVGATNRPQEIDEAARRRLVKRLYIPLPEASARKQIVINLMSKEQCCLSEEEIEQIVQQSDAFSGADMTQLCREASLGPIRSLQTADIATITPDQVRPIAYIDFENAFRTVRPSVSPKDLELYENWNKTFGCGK

[2] = target: T2, FIRRM (insect) (Homo sapiens) (UniProt Q9NSG2); details: no fixation; Fixed EMSA: 40 mM tris-acetate pH 7.5, 20 mM NaCl, 2 mM CaCl2, 0.02% Tween, 1 mM DTT, 100 nM DNA, 0-25 nM protein, 37 C 15 min, then 0.2% glutaraldehyde; recombinant protein; residues 1-853; protein details: N-terminal GFP, TEV-removable; label: 5'-FAM; single-stranded DNA
T2 sequence (looked up): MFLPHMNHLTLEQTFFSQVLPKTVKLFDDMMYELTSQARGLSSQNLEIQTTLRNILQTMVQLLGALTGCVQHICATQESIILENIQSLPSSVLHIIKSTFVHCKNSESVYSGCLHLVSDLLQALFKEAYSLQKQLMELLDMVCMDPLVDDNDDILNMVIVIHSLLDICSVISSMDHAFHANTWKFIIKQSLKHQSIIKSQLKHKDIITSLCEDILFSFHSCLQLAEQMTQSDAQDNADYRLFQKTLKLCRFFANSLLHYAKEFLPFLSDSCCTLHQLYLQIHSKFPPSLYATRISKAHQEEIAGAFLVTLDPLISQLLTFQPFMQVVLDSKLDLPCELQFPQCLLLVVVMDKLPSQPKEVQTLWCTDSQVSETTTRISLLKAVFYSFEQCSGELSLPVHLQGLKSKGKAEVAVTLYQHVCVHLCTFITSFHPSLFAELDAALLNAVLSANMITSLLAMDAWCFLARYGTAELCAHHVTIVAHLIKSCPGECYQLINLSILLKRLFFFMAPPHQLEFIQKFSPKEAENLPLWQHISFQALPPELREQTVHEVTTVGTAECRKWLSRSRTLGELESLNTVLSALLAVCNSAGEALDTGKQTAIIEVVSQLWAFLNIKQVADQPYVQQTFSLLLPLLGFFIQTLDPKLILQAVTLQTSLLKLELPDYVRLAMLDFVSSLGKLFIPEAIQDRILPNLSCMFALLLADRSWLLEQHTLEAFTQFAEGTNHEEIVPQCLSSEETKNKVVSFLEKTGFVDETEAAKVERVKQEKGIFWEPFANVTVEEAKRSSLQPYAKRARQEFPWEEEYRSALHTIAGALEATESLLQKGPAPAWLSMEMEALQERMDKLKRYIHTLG

[3] = target: T3, FIGNL1 (bacterial) (Homo sapiens) (UniProt Q6PIW4); details: glutaraldehyde-fixed, 2 mM CaCl2, Fixed EMSA: 40 mM tris-acetate pH 7.5, 20 mM NaCl, 2 mM CaCl2, 0.02% Tween, 1 mM DTT, 100 nM DNA, 0-25 nM protein, 37 C 15 min, then 0.2% glutaraldehyde, recombinant protein, residues 1-674, protein details: C-terminal His, GST removed by PreScission, label: 32P
T3 sequence (looked up): T1 sequence (looked up)

[4] = target: T4, FIRRM (bacterial) (Homo sapiens) (UniProt Q9NSG2); details: glutaraldehyde-fixed, 2 mM CaCl2, Fixed EMSA: 40 mM tris-acetate pH 7.5, 20 mM NaCl, 2 mM CaCl2, 0.02% Tween, 1 mM DTT, 100 nM DNA, 0-25 nM protein, 37 C 15 min, then 0.2% glutaraldehyde, recombinant protein, residues 1-853, protein details: C-terminal His, GST removed by PreScission, label: 32P
T4 sequence (looked up): T2 sequence (looked up)

“GACGCTGCCGAATTCTACCAGTGCCTTGCTAGGACATCTTTGCCCACCTGCAGGTTCACC [FAM-labeled ssDNA 60-mer]”: binds [1]; binds [2].
“GGGTGAACCTGCAGGTGGGCAAAGATGTCCTGCAATGTAATCGTCAAGCTTTATGCCGT / ACGCTGCCGAATTCTACCAGTGCCAGCGACGGACATCTTTGCCCACCTGCAGGTTCACCC [splayed arms JYM 925 + 926]”: binds more weakly [3]; binds more weakly [4].
“GGGTGAACCTGCAGGTGGGCAAAGATGTCCTGCAATGTAATCGTCAAGCTTTATGCCGT / ACGGCATAAAGCTTGACGATTACATTGCTAGGACATCTTTGCCCACCTGCAGGTTCACCC [dsDNA JYM 925 + 945]”: no binding [3]; no binding [4].
“GGGTGAACCTGCAGGTGGGCAAAGATGTCCTGCAATGTAATCGTCAAGCTTTATGCCGT [ssDNA JYM 925]”: binds ([3]; single-stranded DNA); binds ([4]; single-stranded DNA).

For some assays here: A negative result means that nothing was seen under these conditions. At least one verdict was read from the data and is not stated in words by the source. Tags and fusion partners may be left off the protein sequences shown. Construct, isoform or probe ends are uncertain for at least one entry. For some assays here: A weaker result is weaker than the reference pair of the same experiment.
